From PubChem BioAssay AID330 (DTP/NCI, 2004)
The list does not hold the whole screen: it gathers tests that were run many times, whatever their T/C, doses with no T/C, and many T/C values between a quarter and a half above the control. Further doses and runs are listed elsewhere. T/C gives the treated animals as a percentage of the vehicle group. Some doses have a count of surviving animals in place of a T/C: the source files T/C as zero there, which appears to mark a toxic dose or a test without result, not a measured value. Some survivor counts are full or nearly so, which does not show that the dose was tolerated: the source hardly ever lists a survival T/C far under the control, and the zero likely stands for such cases as well. Counts of survivors are from the toxicity check (mostly the fifth day) where no day follows; animals may have died later. Schedule codes are those of the source, taken here to give the interval after Q, in days (D) or hours (H), and the number of doses after X. Some doses were run more than once; their values stand side by side, smallest first. Where survival is the endpoint, this PubChem deposit counts one and a half times the control or more as active, and values a quarter to a half above the control carry no call in these data; other NCI protocols may use other cut-offs. Some T/C values are followed by the survivors on the day toxicity was checked, most often the fifth; without a count, all were alive then. Brackets with × count equal records among those shown.

System: P388 leukemia ip, CD2F1 mice, survival T/C
Experiment: NCI In Vivo Anticancer Drug Screen. Data for tumor model P388 Leukemia (intraperitoneal) in CD2F1 (CDF1) mice
Settings: T/C endpoint: median survival time, higher T/C = longer survival
[1] = dose: 200.0 mg/kg/injection, schedule: Q01DX005 (ip), vehicle: Klucel (hydroxypropylcellulose) (HPC)
[2] = dose: 50.0 mg/kg/injection, schedule: Q01DX009 (ip), vehicle: water
[3] = dose: 20.0 mg/kg/injection, schedule: Q01DX009 (ip), vehicle: other
[4] = dose: 40.0 mg/kg/injection, schedule: Q01DX009 (ip), vehicle: other
[5] = dose: 160.0 mg/kg/injection, schedule: Q01DX009 (ip), vehicle: other

In the case of `CC[C@@H](C)[C@@H]1NC(=O)C(NC(=O)C(CC(C)C)N(C)C(=O)C2CCCN2C(=O)C(C)O)C(C)OC(=O)C(Cc2ccc(OC)cc2)N(C)C(=O)C2CCCN2C(=O)C(CC(C)C)NC(=O)C(C)C(=O)C(C(C)C)OC(=O)C[C@H]1O` (stereo partly drawn), the T/C (dose: 0.07 mg/kg/injection, schedule: Q01DX009 (ip), vehicle: none) was 135 % of control [3 of 4 alive], the survivor count (dose: 0.15 mg/kg/injection, schedule: Q01DX009 (ip), vehicle: none) was 1 of 4 and the survivor count (dose: 0.3 mg/kg/injection, schedule: Q01DX009 (ip), vehicle: none) was 0 of 4. For the same compound, the T/C (dose: 25.0 micrograms/kg/injection, schedule: Q01DX009 (ip), vehicle: distilled water + Tween-80 + alcohol) was 140 % of control, the T/C (dose: 40.0 micrograms/kg/injection, schedule: Q01DX009 (ip), vehicle: distilled water + alcohol) was 136 % of control and the T/C (dose: 50.0 micrograms/kg/injection, schedule: Q01DX009 (ip), vehicle: distilled water + Tween-80 + alcohol) was 142 % of control. For the same compound, the T/C (dose: 100.0 micrograms/kg/injection, schedule: Q01DX009 (ip), vehicle: distilled water + Tween-80 + alcohol) was 145 % of control, the T/C (dose: 160.0 micrograms/kg/injection, schedule: Q01DX009 (ip), vehicle: distilled water + alcohol) was 146 % of control and the survivor count (dose: 200.0 micrograms/kg/injection, schedule: Q01DX009 (ip), vehicle: distilled water + Tween-80 + alcohol) was 6 of 6. The survivor count (dose: 400.0 micrograms/kg/injection, schedule: Q01DX009 (ip), vehicle: distilled water + Tween-80 + alcohol) was 0 of 6 and the survivor count (dose: 800.0 micrograms/kg/injection, schedule: Q01DX009 (ip), vehicle: distilled water + Tween-80 + alcohol) was 0 of 6.

For `C=C1C(=O)OC2C(OC(C)=O)C1C(OC(=O)C(C)CC)[C@]1(C)C(=O)C=C[C@H]1[C@@H]2C` (stereo partly drawn), the T/C (dose: 3.12 mg/kg/injection, schedule: Q01DX005 (ip), vehicle: Klucel (hydroxypropylcellulose) (HPC)) was 129 % of control, the survivor count (dose: 25.0 mg/kg/injection, schedule: Q01DX005 (ip), vehicle: Klucel (hydroxypropylcellulose) (HPC)) was 3 of 6 and the survivor count (dose: 50.0 mg/kg/injection, schedule: Q01DX005 (ip), vehicle: Klucel (hydroxypropylcellulose) (HPC)) was 0 of 6. For the same compound, the survivor count (dose: 100.0 mg/kg/injection, schedule: Q01DX005 (ip), vehicle: Klucel (hydroxypropylcellulose) (HPC)) was 0 of 6 and the survivor count [1] was 0 of 6.

For `CCCCCCCCSC(SCCCCCCCC)C(O)C(O)C(O)CO` (stereo not drawn), the survivor count (dose: 200.0 mg/kg/injection, schedule: Q01DX005 (ip), vehicle: saline with Tween-80) was 3 of 6.

In the case of `CNc1n[n+](-c2ccccc2)no1`, the T/C (dose: 3.13 mg/kg/injection, schedule: Q01DX009 (ip), vehicle: water) was 102, 104, 106, 107, 109, 110, 111 (2×), 112, 118, 124 % of control, the T/C (dose: 6.25 mg/kg/injection, schedule: Q01DX009 (ip), vehicle: water) was 104, 108, 111, 112 (2×), 116, 119, 121, 124, 128, 134, 137 % of control and the T/C (dose: 12.5 mg/kg/injection, schedule: Q01DX009 (ip), vehicle: water) was 118, 122, 127, 129, 130, 133, 135 (2×), 136, 137, 139, 153 % of control. For the same compound, the T/C (dose: 25.0 mg/kg/injection, schedule: Q01DX009 (ip), vehicle: water) was 120, 148, 152, 153, 154, 155, 168, 170, 171 [5 of 6 alive], 172, 173, 184 % of control [5 of 6 alive], the T/C [2] was 89, 91, 99 (2×), 101, 111, 184 % of control and the survivor count [2] was 5 of 6 and 6 of 6.

For `Oc1ccc2ccccc2c1/C=N\Sc1ccccc1`, the survivor count (dose: 200.0 mg/kg/injection, schedule: Q01DX009 (ip), vehicle: saline with Tween-80) was 4 of 6.

`c1c[nH]c2c3ccncc3c3ncnc3c2c1` was tested, and the survivor count [1] was 6 of 6.

For `COC1=CC[C@H]2[C@H]3Cc4ccc(OC)c5c4[C@@]2(CCN3CC2CC2)C1O5` (stereo partly drawn), the survivor count (dose: 400.0 mg/kg/injection, schedule: Q04DX002 (ip), vehicle: Klucel (hydroxypropylcellulose) (HPC)) was 4 of 6.

With `S=c1nc[nH]c2nc[nH]c12` the T/C [3] was 95, 104, 106 (2×), 109, 118, 122 % of control, the T/C [4] was 93, 96, 103, 106, 111, 115, 134 % of control and the T/C (dose: 80.0 mg/kg/injection, schedule: Q01DX001 (ip), vehicle: other) was 135 % of control. The T/C (dose: 80.0 mg/kg/injection, schedule: Q01DX005 (ip), vehicle: other) was 128 % of control, the survivor count (dose: 80.0 mg/kg/injection, schedule: Q01DX009 (ip), vehicle: alkali diluted with water) was 6 of 6 and the T/C (dose: 80.0 mg/kg/injection, schedule: Q01DX009 (ip), vehicle: other) was 92, 98, 101, 116, 120, 121, 146 % of control. For the same compound, the T/C (dose: 80.0 mg/kg/injection, schedule: Q04DX003 (ip), vehicle: other) was 130 % of control, the T/C (dose: 100.0 mg/kg/injection, schedule: Q01DX005 (ip), vehicle: saline) was 140 % of control and the T/C (dose: 100.0 mg/kg/injection, schedule: Q01DX009 (ip), vehicle: Klucel (hydroxypropylcellulose) (HPC)) was 136 % of control. The survivor count (dose: 150.0 mg/kg/injection, schedule: Q01DX009 (ip), vehicle: alkali diluted with saline) was 8 of 8, the T/C (dose: 150.0 mg/kg/injection, schedule: Q04DX003 (ip), vehicle: Klucel (hydroxypropylcellulose) (HPC)) was 139 % of control and the T/C (dose: 160.0 mg/kg/injection, schedule: Q01DX001 (ip), vehicle: other) was 127 % of control. For the same compound, the T/C (dose: 160.0 mg/kg/injection, schedule: Q01DX005 (ip), vehicle: alkali diluted with saline) was 142 % of control [5 of 6 alive], the survivor count (dose: 160.0 mg/kg/injection, schedule: Q01DX009 (ip), vehicle: alkali diluted with water) was 4 of 6 and the T/C [5] was 129 and 134 % of control. For the same compound, the survivor count [5] was 4 of 6, 5 of 6, 6 of 6, the T/C (dose: 160.0 mg/kg/injection, schedule: Q04DX003 (ip), vehicle: other) was 140 % of control and the T/C (dose: 160.0 mg/kg/injection, schedule: Q04DX003 (iv), vehicle: other) was 138 % of control. The survivor count (dose: 200.0 mg/kg/injection, schedule: Q01DX005 (ip), vehicle: alkali diluted with saline) was 0 of 6, the T/C (dose: 200.0 mg/kg/injection, schedule: Q01DX009 (ip), vehicle: Klucel (hydroxypropylcellulose) (HPC)) was 125 % of control and the survivor count (dose: 250.0 mg/kg/injection, schedule: Q01DX001 (ip), vehicle: alkali diluted with saline) was 2 of 6. For the same compound, the T/C (dose: 300.0 mg/kg/injection, schedule: Q04DX003 (ip), vehicle: Klucel (hydroxypropylcellulose) (HPC)) was 135 % of control, the survivor count (dose: 320.0 mg/kg/injection, schedule: Q01DX009 (ip), vehicle: alkali diluted with water) was 0 of 6 and the T/C (dose: 320.0 mg/kg/injection, schedule: Q04DX003 (ip), vehicle: other) was 137 % of control [5 of 6 alive]. For the same compound, the survivor count (dose: 400.0 mg/kg/injection, schedule: Q01DX005 (ip), vehicle: saline) was 4 of 6 and 5 of 6, the survivor count (dose: 450.0 mg/kg/injection, schedule: Q04DX003 (ip), vehicle: alkali diluted with saline) was 3 of 8 and the T/C (dose: 500.0 mg/kg/injection, schedule: Q01DX001 (ip), vehicle: saline) was 125 % of control. For the same compound, the T/C (dose: 600.0 mg/kg/injection, schedule: Q04DX003 (ip), vehicle: Klucel (hydroxypropylcellulose) (HPC)) was 132 % of control, the survivor count (dose: 640.0 mg/kg/injection, schedule: Q01DX001 (ip), vehicle: other) was 5 of 6 and the T/C (dose: 1000.0 mg/kg/injection, schedule: Q01DX001 (ip), vehicle: saline) was 130 % of control. For the same compound, the survivor count (dose: 2000.0 mg/kg/injection, schedule: Q01DX001 (ip), vehicle: saline) was 5 of 6.

With `COC1/C=C/C=C(/C)Cc2cc(O)c(Cl)c(c2)N(C)C(=O)CC(OC(=O)C(C)C)C2(C)OC2C(C)C2CC1(O)NC(=O)O2` (stereo not drawn) the T/C (dose: 25.0 micrograms/kg/injection, schedule: Q01DX009 (ip), vehicle: saline + alcohol) was 142 % of control.

In the case of `COC1CC(C)(OC(C)=O)Cc2cc3c(c(OC(C)=O)c21)C(=O)c1c(OC(C)=O)cc2c(c1C3=O)OC1OC2(C)C(OC(C)=O)C(N(C)C)C1OC(C)=O` (stereo not drawn), the T/C [3] was 133 % of control and the T/C [4] was 137 % of control.

In the case of `C1OCN2CSCC12` (stereo not drawn), the T/C (dose: 200.0 mg/kg/injection, schedule: Q04DX002 (ip), vehicle: saline with Tween-80) was 126 % of control and the T/C (dose: 400.0 mg/kg/injection, schedule: Q04DX002 (ip), vehicle: saline with Tween-80) was 126 % of control.

With `O=C1CSC(c2c(F)cccc2Cl)N1c1ncccn1` (stereo not drawn) the survivor count (dose: 240.0 mg/kg/injection, schedule: Q01DX005 (ip), vehicle: Klucel (hydroxypropylcellulose) (HPC)) was 0 of 6.
